At least one read-out could not be matched to a standard name with certainty.
System: Diabrotica balteata
Experiment: Diabrotica balteata spray test
Assay type: in vivo
Conditions: after 7 days

SMILES | efficacy (seedling growth) (80 μg/well) | efficacy (seedling growth) (160 μg/well)
CC(c1ncnn1-c1ncccn1)N(Cc1ccccn1)C(=O)c1cc(Cl)cc(C(F)(F)F)c1 (stereo not drawn) [Example I-001, 3-Chloro-N-(pyridin-2-ylmethyl)-N-{1-[1-(pyrimidin-2-yl)-1H-1,2,4-triazol-5-yl]ethyl}-5-(trifluoromethyl)benzamide] | 100% | 100%
CC(c1ncnn1-c1ncccn1)N(C(=O)c1cc(Cl)cc(C(F)(F)F)c1)C1CC1 (stereo not drawn) [Example I-002] | 100% | 100%
CC(c1ncnn1-c1ncccn1)N(CCc1ccc(F)cc1)C(=O)c1cc(Cl)cc(C(F)(F)F)c1 (stereo not drawn) [Example I-003] | 100% | 100%
CC(c1ncnn1-c1ncccn1)N(CC1CS(=O)(=O)C1)C(=O)c1cc(Cl)cc(C(F)(F)F)c1 (stereo not drawn) [Example I-004] | 100% | 100%
COCCN(C(=O)c1cc(Cl)cc(C(F)(F)F)c1)C(C)c1ncnn1-c1ncccn1 (stereo not drawn) [Example I-005] | 100% | 100%
CC(c1ncnn1-c1ncccn1)N(CC1(c2ccccc2)CC1)C(=O)c1cc(Cl)cc(C(F)(F)F)c1 (stereo not drawn) [Example I-006] | 100% | 100%
CC(c1ncnn1-c1ncccn1)N(CC1CCCC1)C(=O)c1cc(Cl)cc(C(F)(F)F)c1 (stereo not drawn) [Example I-007] | 100% | 100%
CC(c1ncnn1-c1ncccn1)N(CC1CCOCC1)C(=O)c1cc(Cl)cc(C(F)(F)F)c1 (stereo not drawn) [Example I-008] | 100% | 100%
CC(c1ncnn1-c1ncccn1)N(CC1(C)CC1)C(=O)c1cc(Cl)cc(C(F)(F)F)c1 (stereo not drawn) [Example I-009] | 100% | 100%
CC(c1ncnn1-c1ncccn1)N(Cc1ncccn1)C(=O)c1cc(Cl)cc(C(F)(F)F)c1 (stereo not drawn) [Example I-010] | 100% | 100%
CC(c1ncnn1-c1ncccn1)N(CC1CSC1)C(=O)c1cc(Cl)cc(C(F)(F)F)c1 (stereo not drawn) [Example I-011] | 100% | 100%
CC(c1ncnn1-c1ncccn1)N(CC1CCCO1)C(=O)c1cc(Cl)cc(C(F)(F)F)c1 (stereo not drawn) [Example I-012] | 100% | 100%
CC(c1ncnn1-c1ncccn1)N(Cc1ccncc1)C(=O)c1cc(Cl)cc(C(F)(F)F)c1 (stereo not drawn) [Example I-014] | 100% | 100%
CC(c1ncnn1-c1ncccn1)N(CC1CCOC1)C(=O)c1cc(Cl)cc(C(F)(F)F)c1 (stereo not drawn) [Example I-015] | 100% | 100%
CC(c1ncnn1-c1ncccn1)N(CC1CCCCC1)C(=O)c1cc(Cl)cc(C(F)(F)F)c1 (stereo not drawn) [Example I-016] | 100% | 100%
CSCCN(C(=O)c1cc(Cl)cc(C(F)(F)F)c1)C(C)c1ncnn1-c1ncccn1 (stereo not drawn) [Example I-017] | 100% | 100%
CC(c1ncnn1-c1ncccn1)N(Cc1ccc(C#N)cc1)C(=O)c1cc(Cl)cc(C(F)(F)F)c1 (stereo not drawn) [Example I-018] | 100% | 100%
CC(c1ncnn1-c1ncccn1)N(Cc1cccnc1)C(=O)c1cc(Cl)cc(C(F)(F)F)c1 (stereo not drawn) [Example I-019] | 100% | 100%
COc1ccc(CN(C(=O)c2cc(Cl)cc(C(F)(F)F)c2)C(C)c2ncnn2-c2ncccn2)cc1 (stereo not drawn) [Example I-020] | 100% | 100%
CC(c1ncnn1-c1ncccn1)N(C(=O)c1cc(Cl)cc(C(F)(F)F)c1)C1COC1 (stereo not drawn) [Example I-021] | 100% | 100%

SMILES | efficacy (seedling growth) (80 μg/well) | efficacy (seedling growth) (160 μg/well)
CC(c1ncnn1-c1ncccn1)N(CCS(C)(=O)=O)C(=O)c1cc(Cl)cc(C(F)(F)F)c1 (stereo not drawn) [Example I-022] | 100% | 100%
CC(c1ncnn1-c1ncccn1)N(CC1OCCO1)C(=O)c1cc(Cl)cc(C(F)(F)F)c1 (stereo not drawn) [Example I-023] | 100% | 100%
CC(c1ncnn1-c1ncccn1)N(C(=O)c1cc(Cl)cc(C(F)(F)F)c1)C1CSC1 (stereo not drawn) [Example I-024] | 100% | 100%
CC(c1ncnn1-c1ncccn1)N(C(=O)c1cc(Cl)cc(C(F)(F)F)c1)C1CS(=O)(=O)C1 (stereo not drawn) [Example I-025] | 100% | 100%
CON(C(=O)c1cc(Cl)cc(C(F)(F)F)c1)C(C)c1ncnn1-c1ncccn1 (stereo not drawn) [Example I-026] | 100% | 100%
CCON(C(=O)c1cc(Cl)cc(C(F)(F)F)c1)C(C)c1ncnn1-c1ncccn1 (stereo not drawn) [Example I-027] | 100% | 100%
CON(C(=O)c1cccc(C(F)(F)F)c1)C(C)c1ncnn1-c1ncccn1 (stereo not drawn) [Example I-028] | 100% | 
CC(c1ncnn1-c1ncccn1)N(Cc1ccc(Cl)nc1)C(=O)c1cc(Cl)cc(C(F)(F)F)c1 (stereo not drawn) [Example I-030] | 100% | 
COCCN(C(=O)c1cc(Cl)cc(S(C)(=O)=O)c1)C(C)c1ncnn1-c1ncccn1 (stereo not drawn) [Example I-031] | 100% | 100%
CSCCN(C(=O)c1cc(Cl)cc(S(C)(=O)=O)c1)C(C)c1ncnn1-c1ncccn1 (stereo not drawn) [Example I-032] | 100% | 100%
CSCCN(C(=O)c1cc(Cl)cc(C(F)(F)F)c1)C(C)c1ncnn1-c1ccc(C#N)cn1 (stereo not drawn) [Example I-033] | 100% | 100%
CSCCN(C(=O)c1cc(C(F)(F)F)cc(C(F)(F)F)c1)C(C)c1ncnn1-c1ccc(C#N)cn1 (stereo not drawn) [Example I-034] | 100% | 100%
CSCCN(C(=O)c1cc(Cl)cc(S(C)(=O)=O)c1)C(C)c1ncnn1-c1ccc(C#N)cn1 (stereo not drawn) [Example I-035] | 100% | 100%
CSCCN(C(=O)c1cc(Cl)cc(Cl)c1)C(C)c1ncnn1-c1ccc(C#N)cn1 (stereo not drawn) [Example I-036] | 100% | 100%
CSCCN(C(=O)c1csc(Cl)c1)C(C)c1ncnn1-c1ccc(C#N)cn1 (stereo not drawn) [Example I-038] |  | 80%
CSCCN(C(=O)c1cc(Cl)cc(S(F)(F)(F)(F)F)c1)C(C)c1ncnn1-c1ccc(C#N)cn1 (stereo not drawn) [Example I-039] | 100% | 100%
CSCCN(C(=O)c1cc(F)cc(C2CC2)c1)C(C)c1ncnn1-c1ccc(C#N)cn1 (stereo not drawn) [Example I-040] | 100% | 100%
CC(c1ncnn1-c1ncccn1)N(CCNS(C)(=O)=O)C(=O)c1cc(Cl)cc(C(F)(F)F)c1 (stereo not drawn) [Example I-041] | 100% | 100%
CC(=O)NCCN(C(=O)c1cc(Cl)cc(C(F)(F)F)c1)C(C)c1ncnn1-c1ncccn1 (stereo not drawn) [Example I-043] | 100% | 100%

From US12116357B2, “Heteroaryl-triazole and heteroaryl-tetrazole compounds as pesticides” (Bayer Aktiengesellschaft, priority 2018, dated 2024)
